# Data as given in the supplement of paper PMC11438910.
# Some of the results follow. Only a few entries rise above the background.
# How the values were obtained:
# Assay in all cases: fluorescence intensity of antibody binding to polysaccharide-coupled beads; higher = stronger binding
# [1] = target: pneumococcal polysaccharide Pn22A
# [2] = target: pneumococcal polysaccharide Pn22F
# [3] = target: pneumococcal polysaccharide Pn23A
# [4] = target: pneumococcal polysaccharide Pn23B
# [5] = target: pneumococcal polysaccharide Pn23F
# [6] = target: pneumococcal polysaccharide Pn24A
# [7] = target: pneumococcal polysaccharide Pn24B
# [8] = target: pneumococcal polysaccharide Pn24F
# [9] = target: pneumococcal polysaccharide Pn25A
# [10] = target: pneumococcal polysaccharide Pn25F
# [11] = target: pneumococcal polysaccharide Pn27
# [12] = target: pneumococcal polysaccharide Pn28A
# [13] = target: pneumococcal polysaccharide Pn28F
# [14] = target: pneumococcal polysaccharide Pn29
# [15] = target: pneumococcal polysaccharide Pn3
# [16] = target: pneumococcal polysaccharide Pn31
# [17] = target: pneumococcal polysaccharide Pn32A
# [18] = target: pneumococcal polysaccharide Pn32F
# [19] = target: pneumococcal polysaccharide Pn33A
# [20] = target: pneumococcal polysaccharide Pn33B
# [21] = target: pneumococcal polysaccharide Pn33C
# [22] = target: pneumococcal polysaccharide Pn33D
# [23] = target: pneumococcal polysaccharide Pn33F
# [24] = antibody concentration 81.7561 ng/mL
# [25] = antibody concentration 437.17 ng/mL
# [26] = antibody concentration 2337.65 ng/mL
# [27] = antibody concentration 12500 ng/mL
# [28] = antibody concentration 0.1 ng/mL
# [29] = antibody concentration 0.534724 ng/mL
# [30] = antibody concentration 2.8593 ng/mL
# [31] = antibody concentration 15.2894 ng/mL
binder,measurement,setting,value
4-127.4 (protein) chain 1: QVQLQESGPGLVKPSETLSLTCGVSGYSISSGHGWSWIRQPPGKGLEWIGYVGGSSGNTNYNPSLKSRVTISKDTSKNQISLKLSSVTAADTAVYYCARRGISGTFGLVDYWGQGVLVTVSS chain 2: QSVLTQPPSVSGAPGQRVTISCTGSSSNIGGYYVQWYQQLPGSAPKLLIYDNDQRPSGVSDRISGSRSGTSASLTITGLQSEDEADYYCQSFDSFLRGVLFGGGTRLTVL,fluorescence intensity,[1]; [24],22 MFI
same,fluorescence intensity,[1]; [25],23.8 MFI
same,fluorescence intensity,[1]; [26],22 MFI
same,fluorescence intensity,[1]; [27],32.5 MFI
same,fluorescence intensity,[2]; [28],29.2 MFI
same,fluorescence intensity,[2]; [29],32.2 MFI
same,fluorescence intensity,[2]; [30],33 MFI
same,fluorescence intensity,[2]; [31],32.2 MFI
same,fluorescence intensity,[2]; [24],30.8 MFI
same,fluorescence intensity,[2]; [25],33 MFI
same,fluorescence intensity,[2]; [26],32.2 MFI
same,fluorescence intensity,[2]; [27],40.2 MFI
same,fluorescence intensity,[3]; [28],24.5 MFI
same,fluorescence intensity,[3]; [29],26 MFI
same,fluorescence intensity,[3]; [30],28.2 MFI
same,fluorescence intensity,[3]; [31],27 MFI
same,fluorescence intensity,[3]; [24],28.8 MFI
same,fluorescence intensity,[3]; [25],29.5 MFI
same,fluorescence intensity,[3]; [26],36 MFI
same,fluorescence intensity,[3]; [27],52.5 MFI
same,fluorescence intensity,[4]; [28],29.8 MFI
same,fluorescence intensity,[4]; [29],32.5 MFI
same,fluorescence intensity,[4]; [30],30 MFI
same,fluorescence intensity,[4]; [31],29.8 MFI
same,fluorescence intensity,[4]; [24],31.5 MFI
same,fluorescence intensity,[4]; [25],30.2 MFI
same,fluorescence intensity,[4]; [26],31 MFI
same,fluorescence intensity,[4]; [27],36.5 MFI
same,fluorescence intensity,[5]; [28],18.8 MFI
same,fluorescence intensity,[5]; [29],20 MFI
same,fluorescence intensity,[5]; [30],18 MFI
same,fluorescence intensity,[5]; [31],18.5 MFI
same,fluorescence intensity,[5]; [24],20 MFI
same,fluorescence intensity,[5]; [25],18.5 MFI
same,fluorescence intensity,[5]; [26],22.8 MFI
same,fluorescence intensity,[5]; [27],27.2 MFI
same,fluorescence intensity,[6]; [28],15 MFI
same,fluorescence intensity,[6]; [29],16 MFI
same,fluorescence intensity,[6]; [30],15.5 MFI
same,fluorescence intensity,[6]; [31],16.5 MFI
same,fluorescence intensity,[6]; [24],16 MFI
same,fluorescence intensity,[6]; [25],15.5 MFI
same,fluorescence intensity,[6]; [26],17.5 MFI
same,fluorescence intensity,[6]; [27],19.5 MFI
same,fluorescence intensity,[7]; [28],20 MFI
same,fluorescence intensity,[7]; [29],17 MFI
same,fluorescence intensity,[7]; [30],18 MFI
same,fluorescence intensity,[7]; [31],17.8 MFI
same,fluorescence intensity,[7]; [24],18.5 MFI
same,fluorescence intensity,[7]; [25],18.2 MFI
same,fluorescence intensity,[7]; [26],21.5 MFI
same,fluorescence intensity,[7]; [27],32.2 MFI
same,fluorescence intensity,[8]; [28],14.5 MFI
same,fluorescence intensity,[8]; [29],15.5 MFI
same,fluorescence intensity,[8]; [30],18.8 MFI
same,fluorescence intensity,[8]; [31],18 MFI
same,fluorescence intensity,[8]; [24],16 MFI
same,fluorescence intensity,[8]; [25],19.5 MFI
same,fluorescence intensity,[8]; [26],23 MFI
same,fluorescence intensity,[8]; [27],31.2 MFI
same,fluorescence intensity,[9]; [28],23.2 MFI
same,fluorescence intensity,[9]; [29],25.5 MFI
same,fluorescence intensity,[9]; [30],24 MFI
same,fluorescence intensity,[9]; [31],23.2 MFI
same,fluorescence intensity,[9]; [24],25 MFI
same,fluorescence intensity,[9]; [25],24.5 MFI
same,fluorescence intensity,[9]; [26],28 MFI
same,fluorescence intensity,[9]; [27],33.5 MFI
same,fluorescence intensity,[10]; [28],30.8 MFI
same,fluorescence intensity,[10]; [29],32.5 MFI
same,fluorescence intensity,[10]; [30],29.5 MFI
same,fluorescence intensity,[10]; [31],31.5 MFI
same,fluorescence intensity,[10]; [24],32.5 MFI
same,fluorescence intensity,[10]; [25],32 MFI
same,fluorescence intensity,[10]; [26],32.8 MFI
same,fluorescence intensity,[10]; [27],37 MFI
same,fluorescence intensity,[11]; [28],16 MFI
same,fluorescence intensity,[11]; [29],16.5 MFI
same,fluorescence intensity,[11]; [30],16.5 MFI
same,fluorescence intensity,[11]; [31],15.5 MFI
same,fluorescence intensity,[11]; [24],17.5 MFI
same,fluorescence intensity,[11]; [25],19.2 MFI
same,fluorescence intensity,[11]; [26],24 MFI
same,fluorescence intensity,[11]; [27],60.2 MFI
same,fluorescence intensity,[12]; [28],27.8 MFI
same,fluorescence intensity,[12]; [29],25.8 MFI
same,fluorescence intensity,[12]; [30],27.5 MFI
same,fluorescence intensity,[12]; [31],27 MFI
same,fluorescence intensity,[12]; [24],26.5 MFI
same,fluorescence intensity,[12]; [25],27 MFI
same,fluorescence intensity,[12]; [26],29.5 MFI
same,fluorescence intensity,[12]; [27],34.8 MFI
same,fluorescence intensity,[13]; [28],28 MFI
same,fluorescence intensity,[13]; [29],31 MFI
same,fluorescence intensity,[13]; [30],30 MFI
same,fluorescence intensity,[13]; [31],31.5 MFI
same,fluorescence intensity,[13]; [24],30 MFI
same,fluorescence intensity,[13]; [25],32.5 MFI
same,fluorescence intensity,[13]; [26],34 MFI
same,fluorescence intensity,[13]; [27],49 MFI
same,fluorescence intensity,[14]; [28],16 MFI
same,fluorescence intensity,[14]; [29],15.5 MFI
same,fluorescence intensity,[14]; [30],14.5 MFI
same,fluorescence intensity,[14]; [31],15.5 MFI
same,fluorescence intensity,[14]; [24],16.5 MFI
same,fluorescence intensity,[14]; [25],18.5 MFI
same,fluorescence intensity,[14]; [26],20 MFI
same,fluorescence intensity,[14]; [27],38.5 MFI
same,fluorescence intensity,[15]; [28],18.2 MFI
same,fluorescence intensity,[15]; [29],39.8 MFI
same,fluorescence intensity,[15]; [30],128 MFI
same,fluorescence intensity,[15]; [31],626 MFI
same,fluorescence intensity,[15]; [24],1880 MFI
same,fluorescence intensity,[15]; [25],5610 MFI
same,fluorescence intensity,[15]; [26],6220 MFI
same,fluorescence intensity,[15]; [27],6810 MFI
same,fluorescence intensity,[16]; [28],13.5 MFI
same,fluorescence intensity,[16]; [29],13 MFI
same,fluorescence intensity,[16]; [30],13.2 MFI
same,fluorescence intensity,[16]; [31],14 MFI
same,fluorescence intensity,[16]; [24],13.5 MFI
same,fluorescence intensity,[16]; [25],15.5 MFI
same,fluorescence intensity,[16]; [26],16.5 MFI
same,fluorescence intensity,[16]; [27],39.2 MFI
same,fluorescence intensity,[17]; [28],17.5 MFI
same,fluorescence intensity,[17]; [29],18 MFI
same,fluorescence intensity,[17]; [30],17.5 MFI
same,fluorescence intensity,[17]; [31],17.5 MFI
same,fluorescence intensity,[17]; [24],18.8 MFI
same,fluorescence intensity,[17]; [25],20 MFI
same,fluorescence intensity,[17]; [26],20.8 MFI
same,fluorescence intensity,[17]; [27],33.5 MFI
same,fluorescence intensity,[18]; [28],29 MFI
same,fluorescence intensity,[18]; [29],27.5 MFI
same,fluorescence intensity,[18]; [30],28.5 MFI
same,fluorescence intensity,[18]; [31],28 MFI
same,fluorescence intensity,[18]; [24],29.5 MFI
same,fluorescence intensity,[18]; [25],30 MFI
same,fluorescence intensity,[18]; [26],37.5 MFI
same,fluorescence intensity,[18]; [27],48.8 MFI
same,fluorescence intensity,[19]; [28],19 MFI
same,fluorescence intensity,[19]; [29],17.5 MFI
same,fluorescence intensity,[19]; [30],17 MFI
same,fluorescence intensity,[19]; [31],17.8 MFI
same,fluorescence intensity,[19]; [24],18 MFI
same,fluorescence intensity,[19]; [25],19 MFI
same,fluorescence intensity,[19]; [26],29.5 MFI
same,fluorescence intensity,[19]; [27],96.5 MFI
same,fluorescence intensity,[20]; [28],18 MFI
same,fluorescence intensity,[20]; [29],17.5 MFI
same,fluorescence intensity,[20]; [30],17 MFI
same,fluorescence intensity,[20]; [31],18 MFI
same,fluorescence intensity,[20]; [24],18 MFI
same,fluorescence intensity,[20]; [25],18.5 MFI
same,fluorescence intensity,[20]; [26],19 MFI
same,fluorescence intensity,[20]; [27],21.5 MFI
same,fluorescence intensity,[21]; [28],20.5 MFI
same,fluorescence intensity,[21]; [29],19.5 MFI
same,fluorescence intensity,[21]; [30],20 MFI
same,fluorescence intensity,[21]; [31],18.2 MFI
same,fluorescence intensity,[21]; [24],18.5 MFI
same,fluorescence intensity,[21]; [25],19 MFI
same,fluorescence intensity,[21]; [26],20.5 MFI
same,fluorescence intensity,[21]; [27],25.8 MFI
same,fluorescence intensity,[22]; [28],15 MFI
same,fluorescence intensity,[22]; [29],16 MFI
same,fluorescence intensity,[22]; [30],17 MFI
same,fluorescence intensity,[22]; [31],16.8 MFI
same,fluorescence intensity,[22]; [24],16.5 MFI
same,fluorescence intensity,[22]; [25],16.5 MFI
same,fluorescence intensity,[22]; [26],17.2 MFI
same,fluorescence intensity,[22]; [27],20 MFI
same,fluorescence intensity,[23]; [28],12 MFI
same,fluorescence intensity,[23]; [29],13.5 MFI
same,fluorescence intensity,[23]; [30],12.5 MFI
same,fluorescence intensity,[23]; [31],13.2 MFI
same,fluorescence intensity,[23]; [24],14 MFI
same,fluorescence intensity,[23]; [25],15.5 MFI
same,fluorescence intensity,[23]; [26],20 MFI
same,fluorescence intensity,[23]; [27],57.8 MFI

# Exported with bars between the fields: part of the list above.
binder | measurement | setting | value
4-127.4 (protein) chain 1: QVQLQESGPGLVKPSETLSLTCGVSGYSISSGHGWSWIRQPPGKGLEWIGYVGGSSGNTNYNPSLKSRVTISKDTSKNQISLKLSSVTAADTAVYYCARRGISGTFGLVDYWGQGVLVTVSS chain 2: QSVLTQPPSVSGAPGQRVTISCTGSSSNIGGYYVQWYQQLPGSAPKLLIYDNDQRPSGVSDRISGSRSGTSASLTITGLQSEDEADYYCQSFDSFLRGVLFGGGTRLTVL | fluorescence intensity | [3]; [26] | 36 MFI
same | fluorescence intensity | [3]; [27] | 52.5 MFI
same | fluorescence intensity | [4]; [28] | 29.8 MFI
same | fluorescence intensity | [4]; [29] | 32.5 MFI
same | fluorescence intensity | [4]; [30] | 30 MFI
same | fluorescence intensity | [4]; [31] | 29.8 MFI
same | fluorescence intensity | [4]; [24] | 31.5 MFI
same | fluorescence intensity | [4]; [25] | 30.2 MFI
same | fluorescence intensity | [4]; [26] | 31 MFI
same | fluorescence intensity | [4]; [27] | 36.5 MFI
same | fluorescence intensity | [5]; [28] | 18.8 MFI
same | fluorescence intensity | [5]; [29] | 20 MFI
same | fluorescence intensity | [5]; [30] | 18 MFI
same | fluorescence intensity | [5]; [31] | 18.5 MFI
same | fluorescence intensity | [5]; [24] | 20 MFI
same | fluorescence intensity | [5]; [25] | 18.5 MFI
same | fluorescence intensity | [5]; [26] | 22.8 MFI
same | fluorescence intensity | [5]; [27] | 27.2 MFI
same | fluorescence intensity | [6]; [28] | 15 MFI
same | fluorescence intensity | [6]; [29] | 16 MFI
same | fluorescence intensity | [6]; [30] | 15.5 MFI
same | fluorescence intensity | [6]; [31] | 16.5 MFI
same | fluorescence intensity | [6]; [24] | 16 MFI
same | fluorescence intensity | [6]; [25] | 15.5 MFI
same | fluorescence intensity | [6]; [26] | 17.5 MFI
same | fluorescence intensity | [6]; [27] | 19.5 MFI
same | fluorescence intensity | [7]; [28] | 20 MFI
same | fluorescence intensity | [7]; [29] | 17 MFI
same | fluorescence intensity | [7]; [30] | 18 MFI
same | fluorescence intensity | [7]; [31] | 17.8 MFI
same | fluorescence intensity | [7]; [24] | 18.5 MFI
same | fluorescence intensity | [7]; [25] | 18.2 MFI
same | fluorescence intensity | [7]; [26] | 21.5 MFI
same | fluorescence intensity | [7]; [27] | 32.2 MFI
same | fluorescence intensity | [8]; [28] | 14.5 MFI
same | fluorescence intensity | [8]; [29] | 15.5 MFI
same | fluorescence intensity | [8]; [30] | 18.8 MFI
same | fluorescence intensity | [8]; [31] | 18 MFI
same | fluorescence intensity | [8]; [24] | 16 MFI
same | fluorescence intensity | [8]; [25] | 19.5 MFI
same | fluorescence intensity | [8]; [26] | 23 MFI
same | fluorescence intensity | [8]; [27] | 31.2 MFI
same | fluorescence intensity | [9]; [28] | 23.2 MFI
same | fluorescence intensity | [9]; [29] | 25.5 MFI
same | fluorescence intensity | [9]; [30] | 24 MFI
same | fluorescence intensity | [9]; [31] | 23.2 MFI
same | fluorescence intensity | [9]; [24] | 25 MFI
same | fluorescence intensity | [9]; [25] | 24.5 MFI
same | fluorescence intensity | [9]; [26] | 28 MFI
same | fluorescence intensity | [9]; [27] | 33.5 MFI
same | fluorescence intensity | [10]; [28] | 30.8 MFI
same | fluorescence intensity | [10]; [29] | 32.5 MFI
same | fluorescence intensity | [10]; [30] | 29.5 MFI
